Measurements reported in PubChem BioAssay AID1508597 (Cure First, 2020).

- Purpose: 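Genes whose silencing sensitises or protects ovarian cancer cells against rucaparib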 (primary screen)
- System: human ovarian carcinoma lines grown from tumours: OCI-P5x (papillary serous) and OCI-C5x (clear cell)
- Reagents: siRNA pool against human genes, 1.25 pmol siRNA per well
- Time to read-out: 72 h or 96 h, depending on the cell culture
- Treatment: rucaparib 20 µM (about IC30) or vehicle, present until read-out
- Measured: 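Luminescent ATP-based viability assay read 72 or 96 h after transfection, depending on culture, given as normalised percent viability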
- Direction: viability, normalised: higher = more viable cells remaining
- Hit rule: 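Active when normalised viability falls below 80 percent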
- Meaning of the calls: active = viability under 80%; inactive = viability 80% or more
In all, the deposit lists about 2,100 reagents; shown is an unselected part. 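Calls flag viability under 80% in either arm, not effects specific to rucaparib; the reference for percent is not stated.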 No sequences are given here. Not stated in the record: the 100% reference.

{"gene symbol":"SP1","rucaparib or vehicle":"Rucaparib","cell line":"OCI-C5x (clear cell)","technical replicate":"1","viability, normalised (%)":65.2,"Call":"active"}
{"gene symbol":"SP1","rucaparib or vehicle":"Rucaparib","cell line":"OCI-C5x (clear cell)","technical replicate":"2","viability, normalised (%)":33.7,"Call":"active"}
{"gene symbol":"SP1","rucaparib or vehicle":"Rucaparib","cell line":"OCI-C5x (clear cell)","technical replicate":"3","viability, normalised (%)":58.2,"Call":"active"}
{"gene symbol":"SP1","rucaparib or vehicle":"Rucaparib","cell line":"OCI-P5x (serous)","technical replicate":"1","viability, normalised (%)":45.8,"Call":"active"}
{"gene symbol":"SP1","rucaparib or vehicle":"Rucaparib","cell line":"OCI-P5x (serous)","technical replicate":"2","viability, normalised (%)":47,"Call":"active"}
{"gene symbol":"SP1","rucaparib or vehicle":"Rucaparib","cell line":"OCI-P5x (serous)","technical replicate":"3","viability, normalised (%)":48.4,"Call":"active"}
{"gene symbol":"SP1","rucaparib or vehicle":"Vehicle","cell line":"OCI-C5x (clear cell)","technical replicate":"1","viability, normalised (%)":65.2,"Call":"active"}
{"gene symbol":"SP1","rucaparib or vehicle":"Vehicle","cell line":"OCI-C5x (clear cell)","technical replicate":"2","viability, normalised (%)":35.8,"Call":"active"}
{"gene symbol":"SP1","rucaparib or vehicle":"Vehicle","cell line":"OCI-C5x (clear cell)","technical replicate":"3","viability, normalised (%)":52.8,"Call":"active"}
{"gene symbol":"SP1","rucaparib or vehicle":"Vehicle","cell line":"OCI-P5x (serous)","technical replicate":"1","viability, normalised (%)":58.5,"Call":"active"}
{"gene symbol":"SP1","rucaparib or vehicle":"Vehicle","cell line":"OCI-P5x (serous)","technical replicate":"2","viability, normalised (%)":63,"Call":"active"}
{"gene symbol":"SP1","rucaparib or vehicle":"Vehicle","cell line":"OCI-P5x (serous)","technical replicate":"3","viability, normalised (%)":53.2,"Call":"active"}
